Laboratory results from the supplement of paper PMC12067093, “Discovery and optimisation of a covalent ligand for TRIM25 and its application to targeted protein ubiquitination” (Chemical Science, 2025).
Some of the results follow.

Sequences of proteins named here, by UniProt entry; tags and fusion partners are left off. A change or cut given only in a name is not applied to a line headed by its entry.
UniProt O60220: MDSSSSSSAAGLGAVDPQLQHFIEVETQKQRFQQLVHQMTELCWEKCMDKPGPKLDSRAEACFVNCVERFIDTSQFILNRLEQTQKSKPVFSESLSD
UniProt Q9Y490: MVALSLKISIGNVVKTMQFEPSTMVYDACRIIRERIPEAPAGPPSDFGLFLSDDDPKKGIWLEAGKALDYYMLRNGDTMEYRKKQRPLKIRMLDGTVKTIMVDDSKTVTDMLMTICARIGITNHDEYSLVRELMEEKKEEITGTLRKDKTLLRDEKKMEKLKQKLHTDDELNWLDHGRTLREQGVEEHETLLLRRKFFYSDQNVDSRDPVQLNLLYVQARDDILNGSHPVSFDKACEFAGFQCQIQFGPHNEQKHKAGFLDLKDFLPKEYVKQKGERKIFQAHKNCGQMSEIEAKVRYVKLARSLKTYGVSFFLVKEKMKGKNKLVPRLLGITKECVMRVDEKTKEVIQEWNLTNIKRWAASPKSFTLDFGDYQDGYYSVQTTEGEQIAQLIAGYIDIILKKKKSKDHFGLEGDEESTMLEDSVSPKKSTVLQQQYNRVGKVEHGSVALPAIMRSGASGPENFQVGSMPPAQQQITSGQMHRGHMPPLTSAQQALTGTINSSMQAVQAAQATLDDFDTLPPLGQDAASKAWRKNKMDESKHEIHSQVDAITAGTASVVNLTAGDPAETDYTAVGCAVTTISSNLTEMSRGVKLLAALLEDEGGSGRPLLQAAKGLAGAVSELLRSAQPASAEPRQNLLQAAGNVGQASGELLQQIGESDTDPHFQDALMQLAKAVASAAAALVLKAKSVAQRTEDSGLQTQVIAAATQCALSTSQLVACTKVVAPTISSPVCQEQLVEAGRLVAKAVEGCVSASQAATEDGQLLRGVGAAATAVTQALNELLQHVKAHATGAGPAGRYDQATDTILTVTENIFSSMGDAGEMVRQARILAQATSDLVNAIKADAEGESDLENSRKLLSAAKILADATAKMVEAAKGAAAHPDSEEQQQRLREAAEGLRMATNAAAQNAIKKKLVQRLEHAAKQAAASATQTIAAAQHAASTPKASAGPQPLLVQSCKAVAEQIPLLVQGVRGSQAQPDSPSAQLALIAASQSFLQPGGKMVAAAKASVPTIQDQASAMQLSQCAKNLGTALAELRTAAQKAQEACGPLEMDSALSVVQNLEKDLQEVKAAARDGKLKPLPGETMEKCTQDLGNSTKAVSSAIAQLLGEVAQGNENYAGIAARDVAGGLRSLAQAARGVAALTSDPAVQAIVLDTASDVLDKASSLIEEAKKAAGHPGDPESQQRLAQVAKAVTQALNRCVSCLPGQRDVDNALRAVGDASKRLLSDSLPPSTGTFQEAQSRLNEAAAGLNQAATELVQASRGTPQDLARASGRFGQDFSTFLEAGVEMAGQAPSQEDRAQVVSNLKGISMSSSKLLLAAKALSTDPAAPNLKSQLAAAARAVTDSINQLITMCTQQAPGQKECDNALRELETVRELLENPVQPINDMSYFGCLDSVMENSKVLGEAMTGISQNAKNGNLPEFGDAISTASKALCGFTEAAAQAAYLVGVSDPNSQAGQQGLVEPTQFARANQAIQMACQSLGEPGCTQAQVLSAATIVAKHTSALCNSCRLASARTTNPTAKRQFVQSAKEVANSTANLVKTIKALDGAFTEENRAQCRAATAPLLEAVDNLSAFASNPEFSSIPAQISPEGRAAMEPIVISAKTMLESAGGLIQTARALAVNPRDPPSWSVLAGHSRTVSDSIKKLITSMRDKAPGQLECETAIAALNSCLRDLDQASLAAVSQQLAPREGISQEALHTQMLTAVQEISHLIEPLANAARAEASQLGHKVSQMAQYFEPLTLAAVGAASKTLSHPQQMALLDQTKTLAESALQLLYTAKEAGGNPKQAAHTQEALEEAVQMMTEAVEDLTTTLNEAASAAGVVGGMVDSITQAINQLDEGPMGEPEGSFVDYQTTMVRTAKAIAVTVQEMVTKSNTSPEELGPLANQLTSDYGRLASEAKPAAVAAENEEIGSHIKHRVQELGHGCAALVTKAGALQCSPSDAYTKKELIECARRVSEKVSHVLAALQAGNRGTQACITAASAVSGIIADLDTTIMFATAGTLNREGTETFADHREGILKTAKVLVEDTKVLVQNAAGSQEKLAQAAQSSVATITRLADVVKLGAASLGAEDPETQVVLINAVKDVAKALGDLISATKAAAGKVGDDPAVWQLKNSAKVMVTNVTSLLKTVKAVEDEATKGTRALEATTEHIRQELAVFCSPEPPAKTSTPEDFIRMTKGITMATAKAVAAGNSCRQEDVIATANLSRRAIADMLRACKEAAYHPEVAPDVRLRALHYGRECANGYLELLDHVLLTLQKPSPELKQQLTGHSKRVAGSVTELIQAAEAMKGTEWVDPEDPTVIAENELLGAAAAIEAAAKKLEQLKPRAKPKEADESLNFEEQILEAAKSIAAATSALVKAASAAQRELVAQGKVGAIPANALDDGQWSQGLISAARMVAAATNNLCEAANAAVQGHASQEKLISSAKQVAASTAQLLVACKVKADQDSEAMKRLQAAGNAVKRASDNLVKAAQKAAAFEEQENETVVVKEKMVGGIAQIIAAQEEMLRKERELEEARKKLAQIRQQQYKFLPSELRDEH
UniProt P17987, whole entry, looked up: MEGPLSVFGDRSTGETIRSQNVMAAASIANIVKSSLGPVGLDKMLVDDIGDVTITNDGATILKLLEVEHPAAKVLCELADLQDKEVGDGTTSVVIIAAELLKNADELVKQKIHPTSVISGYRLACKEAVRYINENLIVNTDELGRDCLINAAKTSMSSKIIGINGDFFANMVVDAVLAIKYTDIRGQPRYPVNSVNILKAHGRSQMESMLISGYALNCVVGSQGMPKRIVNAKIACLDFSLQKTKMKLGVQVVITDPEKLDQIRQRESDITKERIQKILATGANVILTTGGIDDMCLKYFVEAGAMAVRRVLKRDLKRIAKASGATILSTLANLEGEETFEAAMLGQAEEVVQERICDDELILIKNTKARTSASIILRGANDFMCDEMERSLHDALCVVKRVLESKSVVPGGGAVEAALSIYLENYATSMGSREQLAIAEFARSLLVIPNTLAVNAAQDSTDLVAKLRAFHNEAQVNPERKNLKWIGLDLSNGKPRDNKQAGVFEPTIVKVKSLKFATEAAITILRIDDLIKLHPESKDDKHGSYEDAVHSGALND
UniProt Q86W42: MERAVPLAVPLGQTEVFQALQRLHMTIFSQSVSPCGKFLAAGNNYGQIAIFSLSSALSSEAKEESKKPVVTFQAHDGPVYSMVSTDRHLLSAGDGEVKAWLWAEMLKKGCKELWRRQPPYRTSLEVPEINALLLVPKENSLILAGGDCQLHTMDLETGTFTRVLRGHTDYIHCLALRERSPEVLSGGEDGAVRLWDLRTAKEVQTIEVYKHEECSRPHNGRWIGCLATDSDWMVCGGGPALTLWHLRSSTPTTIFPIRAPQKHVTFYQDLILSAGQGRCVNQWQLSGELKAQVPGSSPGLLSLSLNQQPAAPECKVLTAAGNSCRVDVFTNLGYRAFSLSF
UniProt P04183: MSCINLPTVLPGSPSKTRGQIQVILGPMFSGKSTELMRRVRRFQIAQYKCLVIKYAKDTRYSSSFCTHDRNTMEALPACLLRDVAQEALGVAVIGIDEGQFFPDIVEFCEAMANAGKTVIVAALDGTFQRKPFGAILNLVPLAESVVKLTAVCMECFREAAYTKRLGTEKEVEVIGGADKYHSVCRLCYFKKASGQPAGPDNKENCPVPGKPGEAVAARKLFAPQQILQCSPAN
UniProt P29401: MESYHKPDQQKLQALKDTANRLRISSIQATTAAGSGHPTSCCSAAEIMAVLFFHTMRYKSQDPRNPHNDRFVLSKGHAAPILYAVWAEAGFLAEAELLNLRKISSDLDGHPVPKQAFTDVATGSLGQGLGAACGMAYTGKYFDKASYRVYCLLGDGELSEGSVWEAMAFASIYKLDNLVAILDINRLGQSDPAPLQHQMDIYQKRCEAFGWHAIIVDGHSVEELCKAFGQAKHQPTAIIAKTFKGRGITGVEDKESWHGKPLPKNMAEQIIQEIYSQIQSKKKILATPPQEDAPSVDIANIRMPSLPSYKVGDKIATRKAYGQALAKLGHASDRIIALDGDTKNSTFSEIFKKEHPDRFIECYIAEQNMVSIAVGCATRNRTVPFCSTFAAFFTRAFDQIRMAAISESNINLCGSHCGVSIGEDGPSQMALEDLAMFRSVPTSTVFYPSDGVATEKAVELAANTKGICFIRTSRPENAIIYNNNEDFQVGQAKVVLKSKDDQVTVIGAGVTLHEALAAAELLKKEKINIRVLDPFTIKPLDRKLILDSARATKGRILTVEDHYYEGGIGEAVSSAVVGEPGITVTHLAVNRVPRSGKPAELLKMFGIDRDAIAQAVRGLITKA
UniProt P52888, whole entry, looked up: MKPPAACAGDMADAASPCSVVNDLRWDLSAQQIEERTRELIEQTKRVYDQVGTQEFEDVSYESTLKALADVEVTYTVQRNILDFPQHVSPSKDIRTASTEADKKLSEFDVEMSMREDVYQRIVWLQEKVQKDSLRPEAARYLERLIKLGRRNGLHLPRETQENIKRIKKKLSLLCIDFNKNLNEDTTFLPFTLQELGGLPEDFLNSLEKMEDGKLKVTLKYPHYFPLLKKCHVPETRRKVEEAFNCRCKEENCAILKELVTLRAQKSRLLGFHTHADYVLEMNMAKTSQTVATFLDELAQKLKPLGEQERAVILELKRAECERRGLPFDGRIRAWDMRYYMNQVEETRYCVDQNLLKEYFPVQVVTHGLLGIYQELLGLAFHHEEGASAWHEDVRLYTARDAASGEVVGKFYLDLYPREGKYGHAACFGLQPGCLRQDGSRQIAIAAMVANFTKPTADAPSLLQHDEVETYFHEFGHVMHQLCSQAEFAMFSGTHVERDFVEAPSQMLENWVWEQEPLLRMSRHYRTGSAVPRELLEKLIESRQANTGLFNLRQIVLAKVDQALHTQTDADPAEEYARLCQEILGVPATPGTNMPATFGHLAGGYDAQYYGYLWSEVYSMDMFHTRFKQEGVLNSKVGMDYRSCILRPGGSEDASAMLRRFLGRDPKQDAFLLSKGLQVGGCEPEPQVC
UniProt Q9Y5J6: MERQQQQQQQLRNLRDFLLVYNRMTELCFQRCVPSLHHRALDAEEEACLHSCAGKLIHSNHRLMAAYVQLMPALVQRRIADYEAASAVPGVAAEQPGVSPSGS
UniProt O43294, whole entry, looked up: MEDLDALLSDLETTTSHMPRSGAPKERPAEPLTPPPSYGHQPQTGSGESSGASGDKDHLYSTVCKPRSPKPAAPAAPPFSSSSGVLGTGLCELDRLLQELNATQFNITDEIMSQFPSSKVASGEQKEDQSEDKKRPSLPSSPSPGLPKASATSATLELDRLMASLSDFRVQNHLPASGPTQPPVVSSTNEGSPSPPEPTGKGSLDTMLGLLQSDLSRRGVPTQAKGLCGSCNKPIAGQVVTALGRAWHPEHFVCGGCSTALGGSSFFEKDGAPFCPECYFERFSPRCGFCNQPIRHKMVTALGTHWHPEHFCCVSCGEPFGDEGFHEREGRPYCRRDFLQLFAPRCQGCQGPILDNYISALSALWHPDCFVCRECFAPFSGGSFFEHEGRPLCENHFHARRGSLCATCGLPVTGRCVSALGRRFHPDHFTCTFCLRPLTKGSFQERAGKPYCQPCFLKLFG
UniProt Q96N21: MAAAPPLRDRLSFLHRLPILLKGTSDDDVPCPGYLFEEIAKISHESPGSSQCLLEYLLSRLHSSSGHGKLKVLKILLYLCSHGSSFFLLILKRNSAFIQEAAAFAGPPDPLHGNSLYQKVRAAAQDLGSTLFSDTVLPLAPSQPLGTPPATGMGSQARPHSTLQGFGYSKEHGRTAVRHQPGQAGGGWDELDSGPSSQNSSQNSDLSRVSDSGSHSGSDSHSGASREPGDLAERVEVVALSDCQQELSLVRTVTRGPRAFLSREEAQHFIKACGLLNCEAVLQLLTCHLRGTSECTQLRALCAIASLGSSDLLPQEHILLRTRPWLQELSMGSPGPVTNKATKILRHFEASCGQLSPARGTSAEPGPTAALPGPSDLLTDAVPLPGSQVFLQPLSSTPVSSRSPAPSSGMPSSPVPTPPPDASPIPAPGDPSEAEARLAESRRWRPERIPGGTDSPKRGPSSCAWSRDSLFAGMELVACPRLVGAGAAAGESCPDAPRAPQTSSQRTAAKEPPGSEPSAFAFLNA
UniProt Q01085: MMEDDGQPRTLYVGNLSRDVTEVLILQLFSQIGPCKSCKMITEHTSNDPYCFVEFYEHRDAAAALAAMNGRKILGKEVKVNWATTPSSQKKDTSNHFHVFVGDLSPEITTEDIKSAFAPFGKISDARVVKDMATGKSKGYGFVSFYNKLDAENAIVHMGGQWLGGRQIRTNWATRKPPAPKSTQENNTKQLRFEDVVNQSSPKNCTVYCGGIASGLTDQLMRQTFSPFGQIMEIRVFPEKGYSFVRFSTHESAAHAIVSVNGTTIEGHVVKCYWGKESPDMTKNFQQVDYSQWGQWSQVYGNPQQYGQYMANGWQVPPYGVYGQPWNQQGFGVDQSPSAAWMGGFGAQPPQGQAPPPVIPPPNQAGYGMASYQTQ

compound: Cc1cc(ccc1-c1ccccc1)C(=O)N1CCCN(CC1)C(=O)CCl [compound 10]; experiment: probe-labelled cysteine peptide fold change vs DMSO (competition) (log2 fold change); higher = less target engagement (more negative = stronger competition); conditions: 50 µM; THP-1; incubation time: 4 h
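Note: competitive profiling in live THP-1 cells: cysteine peptides tagged with an iodoacetamide desthiobiotin (IA-DTB) probe, intensity after compound treatment relative to DMSO-treated cells.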

Row | Target | probe-labelled cysteine peptide fold change
1 | TIMM8A_O60220_62_AEACFVNCVER (UniProt O60220) | 0.159
2 | TLN1_Q9Y490_1939_AGALQCSPSDAYTK (UniProt Q9Y490) | -0.0687
3 | TELO2_Q9Y4R8_222_ACVHGR (UniProt Q9Y4R8) | -0.414
4 | TIMELESS_Q9UNS1_1126_VPGEQGSDEEHCK (UniProt Q9UNS1) | -0.828
5 | TCP1_P17987_397_SLHDALCVVK (UniProt P17987) | 0.0225
6 | TECR_Q9NZ01_18_LCFLDK (UniProt Q9NZ01) | -0.16
7 | THBD_P07204_265_CQCPAGAALQADGR (UniProt P07204) | 0.0778
8 | THOC6_Q86W42_324_VLTAAGNSCR (UniProt Q86W42) | 0.127
9 | TK1_P04183_79_NTMEALPACLLR (UniProt P04183) | 0.0745
10 | TKT_P29401_206_RCEAFGWHAIIVDGHSVEELCK (UniProt P29401) | -0.116
11 | TK1_P04183_230_LFAPQQILQCSPAN (UniProt P04183) | -0.165
12 | TCP1_P17987_236_IACLDFSLQK (UniProt P17987) | 0.172
13 | THOP1_P52888_644_SCILRPGGSEDASAMLR (UniProt P52888) | -0.0159
14 | TGFBR1_P36897_101_TGSVTTTYCCNQDHCNK (UniProt P36897) | -0.398
15 | THOC2_Q8NI27_1031_VFSDIIYTVASCTENEASR (UniProt Q8NI27) | 0.189
16 | TKFC_Q3LXA3_24_KLVNSVAGCADDALAGLVACNPNLQLLQGHR (UniProt Q3LXA3) | -0.141
17 | TIGAR_Q9NQ88_161_EQFSQGSPSNCLETSLAEIFPLGK (UniProt Q9NQ88) | -0.804
18 | TECPR2_O15040_282_LESPNSGSCSLPER (UniProt O15040) | -0.107
19 | TIMM10B_Q9Y5J6_48+52_ALDAEEEACLHSCAGK (UniProt Q9Y5J6) | -0.275
20 | THEMIS2_Q5TEJ8_395_LEVLGPGQAHGAQGSDVDVLVCQR (UniProt Q5TEJ8) | -0.0555

Row | Target | probe-labelled cysteine peptide fold change
21 | TGFB1I1_O43294_431_FHPDHFTCTFCLRPLTK (UniProt O43294) | -0.15
22 | THOC6_Q86W42_214_EVQTIEVYKHEECSRPHNGR (UniProt Q86W42) | -0.454
23 | THOC5_Q13769_282_HLPPPLYVLFVQATAYGQACDK (UniProt Q13769) | 1.48
24 | THUMPD3_Q9BV44_434_VCTPTTGR (UniProt Q9BV44) | -0.278
25 | TIPRL_O75663_14_DFCFGPWK (UniProt O75663) | -0.0619
26 | THOP1_P52888_321_RAECER (UniProt P52888) | 0.0687
27 | TEPSIN_Q96N21_273_ACGLLNCEAVLQLLTCHLR (UniProt Q96N21) | 2.62
28 | THAP10_Q9P2Z0_171_QAAASQITCENELVQTQPHADNPSNTVTSVPTHCEEGPVHK (UniProt Q9P2Z0) | -0.447
29 | THOP1_P52888_427_YGHAACFGLQPGCLR (UniProt P52888) | -0.246
30 | TIAL1_Q01085_51_MITEHTSNDPYCFVEFYEHR (UniProt Q01085) | -0.0448
31 | TGFB1I1_O43294_228+231_GLCGSCNKPIAGQVVTALGR (UniProt O43294) | -0.272
32 | THAP12_O43422_644_SDLPNPDTLSAELHCWR (UniProt O43422) | -0.122
33 | THADA_Q6YHU6_180_CAGNHIIQTQLMNDLLVGIR (UniProt Q6YHU6) | 0.0834
34 | TEPSIN_Q96N21_479_DSLFAGMELVACPR (UniProt Q96N21) | -0.713
35 | TGFB1I1_O43294_393_ECFAPFSGGSFFEHEGRPLCENHFHAR (UniProt O43294) | 0.171
36 | TLDC1_Q6P9B6_310_HVFGGFASCSWEVKPQFQGDNR (UniProt Q6P9B6) | 0.215
37 | TLN1_Q9Y490_1506+1509_HTSALCNSCR (UniProt Q9Y490) | -0.0528
38 | TJAP1_Q5JTD0_350_NSPLPNCTYATR (UniProt Q5JTD0) | -0.739
39 | TICAM1_Q8IUC6_37_TPRPGCQGQDLLHAMVLLK (UniProt Q8IUC6) | -0.0325
40 | TIMM44_O43615_343_DWCYEATYSQLAHPIQQAK (UniProt O43615) | 0.259
